Source: publication PMC13233068, “HSD17B7 is required for the function of sensory hair cells by regulating cholesterol synthesis” (eLife, 2026)
Results are given in words; binding and its absence hold for the method and conditions named. In cells and extracts the contact can be indirect. These calls come from enrichment with a bait or labelling near it, and not all partners need be listed. Sequences can lack the tags named with a protein.

Biological target: T1, Flag-tagged HSD17B7 (human) (UniProt P56937)
T1 sequence: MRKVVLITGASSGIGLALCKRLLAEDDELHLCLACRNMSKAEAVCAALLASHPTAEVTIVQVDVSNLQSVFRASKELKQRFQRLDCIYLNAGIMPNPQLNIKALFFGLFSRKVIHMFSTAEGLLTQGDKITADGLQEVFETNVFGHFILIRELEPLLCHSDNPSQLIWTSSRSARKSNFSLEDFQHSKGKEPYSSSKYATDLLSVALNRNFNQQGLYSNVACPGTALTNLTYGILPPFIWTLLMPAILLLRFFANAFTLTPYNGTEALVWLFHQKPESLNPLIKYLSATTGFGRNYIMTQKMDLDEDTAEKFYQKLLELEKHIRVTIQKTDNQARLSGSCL
Experiment: affinity purification with mass spectrometry; lysates of HEI-OC1 cells transfected with pCMV-Flag, pCMV-Flag-HSD17B7 or pCMV-Flag-HSD17B7^E182*, anti-Flag beads overnight at 4°C, washed three times with lysis buffer, nano-LC-MS/MS

B1: RER1 (endogenous, HEI-OC1 cells) (protein, UniProt Q9CQU3 1-196)
chain: MSEGDSVGDSVHGKPSVVYRFFSRLGQIYQSWLDKSTPYTAVRWVVTLGLSFVYMIRVYLLQGWYIVTYALGIYHLNLFIAFLSPKVDPSLMEDSDDGPSLPTKQNEEFRPFIRRLPEFKFWHAATKGILVAMICTFFEAFNVPVFWPILVMYFIMLFCITMKRQIKHMIKYRYIPFTHGKRRYKGKEDVGKTFAS
  binding: binds
